Measurements reported in PubChem BioAssay AID1259254 (NCATS, 2017).

Test: 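Genome-wide screen for genes that prevent DNA re-replication in cancer cells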 (primary screen)
System: human HCT116 colorectal cancer cells
Knock-down reagent: single siRNA against human genes
Time to read-out: 3 days
Measured: 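Nuclei stained with Hoechst and imaged; cell-cycle phase assigned by DNA content; G2 share scaled per plate, non-targeting siRNA 0%, GMNN siRNA 100%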
Reading the numbers: G2 robust z-score and G2 cells, % of GMNN control: higher = more G2 cells, more excess DNA replication
Active means: 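Active siRNAs have a G2 robust z of 5 or more median absolute deviations over the median, which in these data means about 38% or higher of GMNN control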
Shown is a random part of about 59,000 deposited reagents. About 1,550 of all reagents (2.6%) were called active. 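G2 share is only a proxy for re-replication; each gene was hit by three separate siRNAs, and active genes were retested.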 Unmarked entries are inactive. The numbers tell different reagents against one gene apart. Not all columns of the deposit are shown. Not given: the amount of reagent.

| gene knocked down | siRNA no. | G2 robust z-score | G2 cells, % of GMNN control |
| --- | --- | --- | --- |
| ERP29 | 1 | 7.51 (active) | 55.8 |
| ERP29 | 2 | 2.13 | 18 |
| ERP29 | 3 | 1.75 | 15.3 |
| MICALL2 | 1 | 1.51 | 13.6 |
| MICALL2 | 2 | 0.924 | 9.47 |
| MICALL2 | 3 | 0.614 | 7.29 |
| TYK2 | 1 | -0.864 | -3.11 |
| TYK2 | 2 | 0.219 | 4.51 |
| TYK2 | 3 | 0.0633 | 3.41 |
| CER1 | 1 | -0.243 | 1.26 |
| CER1 | 2 | 0.14 | 3.95 |
| CER1 | 3 | -0.131 | 2.04 |
| OR8S1 | 1 | -0.737 | -2.22 |
| OR8S1 | 2 | 0.872 | 9.1 |
| OR8S1 | 3 | 0.631 | 7.41 |
| MED12L | 1 | 3.24 | 25.7 |
| MED12L | 2 | -0.347 | 0.528 |
| MED12L | 3 | -0.549 | -0.896 |
| TMEM50B | 1 | -0.63 | -1.47 |
| TMEM50B | 2 | 0.691 | 7.83 |
| TMEM50B | 3 | 0.16 | 4.09 |
| RASL11A | 1 | -0.817 | -2.78 |
| RASL11A | 2 | -0.687 | -1.87 |
| RASL11A | 3 | -0.173 | 1.75 |
| GNG8 | 1 | 0.178 | 4.22 |
| GNG8 | 2 | -0.0372 | 2.71 |
| GNG8 | 3 | -0.305 | 0.822 |
| MGP | 1 | 2.45 | 20.2 |
| MGP | 2 | 2.95 | 23.7 |
| MGP | 3 | 4.27 | 33 |
| CCDC27 | 1 | -0.958 | -3.77 |
| CCDC27 | 2 | -0.38 | 0.295 |
| CCDC27 | 3 | -0.399 | 0.163 |
| H2BC18 | 1 | 0.148 | 4.01 |
| H2BC18 | 2 | 0.844 | 8.9 |
| H2BC18 | 3 | 1.48 | 13.4 |
| LENG9 | 1 | 3.38 | 26.8 |
| LENG9 | 2 | -1.03 | -4.3 |
| LENG9 | 3 | 1.22 | 11.5 |
| HADHB | 1 | 0.0386 | 3.24 |
| HADHB | 2 | 0.816 | 8.71 |
| HADHB | 3 | -1.24 | -5.78 |
| GPAT2 | 1 | -0.664 | -1.71 |
| GPAT2 | 2 | 0.367 | 5.55 |
| GPAT2 | 3 | -0.822 | -2.81 |
| TMPRSS2 | 1 | 1.85 | 16 |
| TMPRSS2 | 2 | -1.1 | -4.76 |
| TMPRSS2 | 3 | -0.493 | -0.504 |
| CYP11A1 | 1 | 0.171 | 4.17 |
| CYP11A1 | 2 | -0.93 | -3.57 |
| CYP11A1 | 3 | 4.07 | 31.6 |
| SLC2A1 | 1 | -0.574 | -1.07 |
| SLC2A1 | 2 | -0.0764 | 2.43 |
| SLC2A1 | 3 | 0.23 | 4.58 |
| SPI1 | 1 | -0.771 | -2.46 |
| SPI1 | 2 | 0.829 | 8.8 |
| SPI1 | 3 | 1.41 | 12.9 |
| MEX3A | 1 | -0.087 | 2.36 |
| MEX3A | 2 | 2.91 | 23.4 |
| MEX3A | 3 | 0.672 | 7.7 |
| LPA | 1 | 2.33 | 19.4 |
| LPA | 2 | 0.583 | 7.07 |
| LPA | 3 | -0.774 | -2.48 |
| HAX1 | 1 | -1.05 | -4.42 |
| HAX1 | 2 | 0.24 | 4.65 |
| HAX1 | 3 | 1.04 | 10.3 |
| PES1 | 1 | 7.66 (active) | 56.9 |
| PES1 | 2 | 2.01 | 17.1 |
| PES1 | 3 | -0.686 | -1.86 |

Taken from above.
Entry for MGP #3 under “G2 robust z-score”: 4.27
Under “G2 cells, % of GMNN control”, HADHB #1 has 3.24
HAX1 #3, G2 cells, % of GMNN control → 10.3
Value of CCDC27 #3 under “G2 cells, % of GMNN control”: 0.163
HAX1 #1, G2 robust z-score = -1.05
Under “G2 robust z-score”, PES1 #3 shows -0.686
